According to the supplement of paper PMC10849652:
The other results are listed elsewhere or left out.

By UniProt entry, the sequences of proteins in these tests, tags left out. Where a name states a change or a piece, a line headed by the entry shows the natural chain unless it says otherwise.
UniProt P13747, whole entry, looked up: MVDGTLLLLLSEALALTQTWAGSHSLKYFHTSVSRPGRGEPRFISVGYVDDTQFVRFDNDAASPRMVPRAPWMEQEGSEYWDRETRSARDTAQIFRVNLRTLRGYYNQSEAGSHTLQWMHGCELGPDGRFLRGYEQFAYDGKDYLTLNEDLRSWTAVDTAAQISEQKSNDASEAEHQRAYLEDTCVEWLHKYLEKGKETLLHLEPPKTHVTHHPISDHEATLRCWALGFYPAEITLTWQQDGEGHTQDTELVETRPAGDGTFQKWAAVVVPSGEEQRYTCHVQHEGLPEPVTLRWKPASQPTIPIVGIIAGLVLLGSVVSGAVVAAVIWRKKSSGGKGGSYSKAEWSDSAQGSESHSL
UniProt O00291: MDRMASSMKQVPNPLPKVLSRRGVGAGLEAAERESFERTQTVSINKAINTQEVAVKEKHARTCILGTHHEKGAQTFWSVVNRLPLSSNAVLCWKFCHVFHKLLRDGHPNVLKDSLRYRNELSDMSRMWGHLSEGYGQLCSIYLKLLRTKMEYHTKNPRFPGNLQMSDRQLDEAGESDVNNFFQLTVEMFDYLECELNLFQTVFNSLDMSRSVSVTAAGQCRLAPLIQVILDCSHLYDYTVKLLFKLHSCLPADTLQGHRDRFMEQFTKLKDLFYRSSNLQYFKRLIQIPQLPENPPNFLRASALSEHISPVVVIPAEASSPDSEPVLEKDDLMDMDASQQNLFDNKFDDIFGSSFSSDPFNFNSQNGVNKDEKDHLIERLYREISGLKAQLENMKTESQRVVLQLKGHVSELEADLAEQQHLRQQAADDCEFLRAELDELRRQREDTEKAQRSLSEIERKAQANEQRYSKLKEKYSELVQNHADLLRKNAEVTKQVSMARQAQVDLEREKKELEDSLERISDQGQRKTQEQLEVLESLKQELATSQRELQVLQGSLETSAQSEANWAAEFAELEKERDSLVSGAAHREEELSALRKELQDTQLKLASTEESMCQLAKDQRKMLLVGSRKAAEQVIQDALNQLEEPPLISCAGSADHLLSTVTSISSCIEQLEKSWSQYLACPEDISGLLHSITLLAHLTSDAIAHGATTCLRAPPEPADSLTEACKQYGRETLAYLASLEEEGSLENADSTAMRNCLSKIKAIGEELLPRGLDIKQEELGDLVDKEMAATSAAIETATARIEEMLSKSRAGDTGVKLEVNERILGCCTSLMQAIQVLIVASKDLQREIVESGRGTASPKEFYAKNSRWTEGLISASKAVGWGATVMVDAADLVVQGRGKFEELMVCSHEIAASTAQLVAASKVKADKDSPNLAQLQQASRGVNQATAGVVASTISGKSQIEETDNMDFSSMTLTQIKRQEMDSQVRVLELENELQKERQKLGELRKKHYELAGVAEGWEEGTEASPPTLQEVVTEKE
UniProt Q6DN03, whole entry, looked up: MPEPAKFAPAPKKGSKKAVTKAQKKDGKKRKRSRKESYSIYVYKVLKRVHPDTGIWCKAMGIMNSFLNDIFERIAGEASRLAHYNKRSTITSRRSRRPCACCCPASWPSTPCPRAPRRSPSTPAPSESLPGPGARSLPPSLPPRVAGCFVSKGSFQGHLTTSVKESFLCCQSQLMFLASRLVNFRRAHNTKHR
UniProt Q9UMF0: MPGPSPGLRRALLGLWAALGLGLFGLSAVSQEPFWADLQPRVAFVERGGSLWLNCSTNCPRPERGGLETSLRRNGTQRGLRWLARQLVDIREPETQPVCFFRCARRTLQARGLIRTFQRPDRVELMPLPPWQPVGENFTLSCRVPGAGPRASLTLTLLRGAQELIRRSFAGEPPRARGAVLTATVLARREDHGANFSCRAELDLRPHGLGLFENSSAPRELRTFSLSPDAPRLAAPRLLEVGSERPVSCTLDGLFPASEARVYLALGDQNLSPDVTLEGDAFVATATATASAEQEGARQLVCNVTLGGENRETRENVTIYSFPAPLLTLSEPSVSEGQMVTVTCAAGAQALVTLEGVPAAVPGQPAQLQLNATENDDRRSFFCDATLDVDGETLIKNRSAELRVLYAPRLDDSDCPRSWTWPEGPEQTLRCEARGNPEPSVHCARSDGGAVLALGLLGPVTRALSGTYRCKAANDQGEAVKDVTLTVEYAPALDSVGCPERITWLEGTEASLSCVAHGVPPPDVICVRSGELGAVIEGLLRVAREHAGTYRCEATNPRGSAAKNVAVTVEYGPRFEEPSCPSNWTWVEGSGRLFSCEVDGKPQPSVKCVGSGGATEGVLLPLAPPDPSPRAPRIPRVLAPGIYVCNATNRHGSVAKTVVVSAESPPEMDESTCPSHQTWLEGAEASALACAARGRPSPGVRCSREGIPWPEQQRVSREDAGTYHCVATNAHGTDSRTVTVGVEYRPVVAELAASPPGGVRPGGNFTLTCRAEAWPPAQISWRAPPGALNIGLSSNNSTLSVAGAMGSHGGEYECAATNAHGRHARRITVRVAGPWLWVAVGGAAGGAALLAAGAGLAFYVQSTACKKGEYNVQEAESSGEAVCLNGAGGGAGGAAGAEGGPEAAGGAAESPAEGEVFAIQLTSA
UniProt O15347: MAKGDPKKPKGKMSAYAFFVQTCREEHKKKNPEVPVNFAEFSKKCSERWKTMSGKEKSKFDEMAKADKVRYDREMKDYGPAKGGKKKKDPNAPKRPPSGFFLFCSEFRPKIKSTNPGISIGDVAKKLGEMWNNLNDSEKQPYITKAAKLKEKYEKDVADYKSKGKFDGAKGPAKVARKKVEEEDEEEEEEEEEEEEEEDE
UniProt P52597: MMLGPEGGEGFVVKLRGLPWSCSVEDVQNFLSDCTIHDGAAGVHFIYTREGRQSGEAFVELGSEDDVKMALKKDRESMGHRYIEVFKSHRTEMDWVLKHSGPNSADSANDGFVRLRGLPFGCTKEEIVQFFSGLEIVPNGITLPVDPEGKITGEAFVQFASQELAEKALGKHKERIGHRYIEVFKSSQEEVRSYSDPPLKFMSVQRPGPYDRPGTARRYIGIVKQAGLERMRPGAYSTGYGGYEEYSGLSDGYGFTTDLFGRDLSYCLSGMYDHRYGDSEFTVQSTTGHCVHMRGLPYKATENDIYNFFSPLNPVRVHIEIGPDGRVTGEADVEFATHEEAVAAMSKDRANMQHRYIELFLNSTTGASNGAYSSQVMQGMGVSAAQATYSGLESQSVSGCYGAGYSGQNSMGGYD
UniProt Q58FF6, whole entry, looked up: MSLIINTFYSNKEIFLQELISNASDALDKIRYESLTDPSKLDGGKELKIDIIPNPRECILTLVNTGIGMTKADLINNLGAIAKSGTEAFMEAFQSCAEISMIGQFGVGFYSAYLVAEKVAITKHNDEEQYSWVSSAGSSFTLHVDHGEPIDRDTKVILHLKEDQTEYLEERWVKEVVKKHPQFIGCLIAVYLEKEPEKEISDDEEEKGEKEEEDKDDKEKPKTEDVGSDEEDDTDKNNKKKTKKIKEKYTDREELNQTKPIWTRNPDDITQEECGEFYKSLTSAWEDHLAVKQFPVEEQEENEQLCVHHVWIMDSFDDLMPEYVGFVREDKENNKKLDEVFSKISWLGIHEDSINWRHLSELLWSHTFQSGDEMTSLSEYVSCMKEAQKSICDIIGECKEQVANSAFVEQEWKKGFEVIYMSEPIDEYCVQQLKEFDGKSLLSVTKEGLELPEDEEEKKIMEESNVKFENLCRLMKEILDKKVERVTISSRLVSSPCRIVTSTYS
UniProt Q9Y2F5: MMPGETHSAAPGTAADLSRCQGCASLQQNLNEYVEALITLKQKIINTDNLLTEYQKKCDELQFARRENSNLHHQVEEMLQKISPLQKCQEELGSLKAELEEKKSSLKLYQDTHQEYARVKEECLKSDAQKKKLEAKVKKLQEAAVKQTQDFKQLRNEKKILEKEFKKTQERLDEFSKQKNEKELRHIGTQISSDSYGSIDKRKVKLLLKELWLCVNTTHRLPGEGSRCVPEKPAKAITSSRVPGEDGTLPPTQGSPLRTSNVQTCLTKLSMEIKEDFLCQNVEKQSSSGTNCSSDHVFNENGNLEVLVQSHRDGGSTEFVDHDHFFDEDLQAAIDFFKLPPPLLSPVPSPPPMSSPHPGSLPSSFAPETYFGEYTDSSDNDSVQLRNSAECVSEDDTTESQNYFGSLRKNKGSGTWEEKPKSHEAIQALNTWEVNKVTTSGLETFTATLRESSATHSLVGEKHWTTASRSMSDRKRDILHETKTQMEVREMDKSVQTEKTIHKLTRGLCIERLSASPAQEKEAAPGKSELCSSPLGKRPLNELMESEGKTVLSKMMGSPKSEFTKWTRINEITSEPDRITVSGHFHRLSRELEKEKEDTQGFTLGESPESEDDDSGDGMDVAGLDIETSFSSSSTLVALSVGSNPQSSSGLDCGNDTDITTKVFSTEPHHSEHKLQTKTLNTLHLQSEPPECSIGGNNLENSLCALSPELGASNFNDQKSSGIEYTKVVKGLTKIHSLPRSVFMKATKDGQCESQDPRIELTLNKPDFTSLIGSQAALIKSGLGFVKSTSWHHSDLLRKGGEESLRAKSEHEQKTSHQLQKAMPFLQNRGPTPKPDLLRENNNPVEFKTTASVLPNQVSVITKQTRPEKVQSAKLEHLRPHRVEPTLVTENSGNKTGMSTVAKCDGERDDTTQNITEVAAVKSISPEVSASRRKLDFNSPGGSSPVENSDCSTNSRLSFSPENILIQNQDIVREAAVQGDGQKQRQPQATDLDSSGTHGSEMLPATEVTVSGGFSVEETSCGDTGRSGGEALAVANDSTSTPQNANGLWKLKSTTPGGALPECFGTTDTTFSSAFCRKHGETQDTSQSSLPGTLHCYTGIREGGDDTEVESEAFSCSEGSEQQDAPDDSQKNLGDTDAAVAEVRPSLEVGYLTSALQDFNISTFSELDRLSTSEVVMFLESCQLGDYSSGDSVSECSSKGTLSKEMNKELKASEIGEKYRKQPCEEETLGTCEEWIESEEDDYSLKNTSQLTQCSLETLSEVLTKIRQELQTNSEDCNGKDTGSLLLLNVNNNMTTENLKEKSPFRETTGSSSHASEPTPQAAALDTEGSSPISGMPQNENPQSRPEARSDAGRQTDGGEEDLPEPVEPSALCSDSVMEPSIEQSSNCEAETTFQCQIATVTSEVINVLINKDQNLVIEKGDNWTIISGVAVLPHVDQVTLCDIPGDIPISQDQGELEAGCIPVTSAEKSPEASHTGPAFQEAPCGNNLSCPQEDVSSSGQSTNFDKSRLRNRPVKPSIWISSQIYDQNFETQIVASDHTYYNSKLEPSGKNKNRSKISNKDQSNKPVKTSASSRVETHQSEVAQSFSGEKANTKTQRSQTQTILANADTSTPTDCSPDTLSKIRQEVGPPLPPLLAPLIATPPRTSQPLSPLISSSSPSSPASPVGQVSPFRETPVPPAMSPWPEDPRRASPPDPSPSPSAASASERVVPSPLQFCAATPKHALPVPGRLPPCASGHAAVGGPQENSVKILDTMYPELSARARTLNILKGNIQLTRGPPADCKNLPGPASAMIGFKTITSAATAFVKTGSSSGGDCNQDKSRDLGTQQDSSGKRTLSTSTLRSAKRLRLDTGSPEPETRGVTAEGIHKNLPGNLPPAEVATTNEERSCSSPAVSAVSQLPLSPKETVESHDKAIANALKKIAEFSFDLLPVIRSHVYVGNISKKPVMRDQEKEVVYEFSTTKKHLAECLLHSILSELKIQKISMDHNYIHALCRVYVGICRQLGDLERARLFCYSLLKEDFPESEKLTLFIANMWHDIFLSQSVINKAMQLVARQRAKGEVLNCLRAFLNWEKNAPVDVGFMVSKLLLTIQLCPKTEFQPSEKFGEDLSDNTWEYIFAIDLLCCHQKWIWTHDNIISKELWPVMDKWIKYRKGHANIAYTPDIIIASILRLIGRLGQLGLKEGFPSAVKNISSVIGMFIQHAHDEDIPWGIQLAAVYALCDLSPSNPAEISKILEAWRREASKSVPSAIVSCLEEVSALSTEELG

Columns and labels:
Test in all cases: log2 fold change, soluble protein after heating vs DMSO (PISA); higher = thermal stabilisation; K562 cells, 10 uM, 30 min; active = over 0.2 and 3.5 SD of the protein, either way, in both replicates (recomputed)
[1] = compound: COC1=CC=C(C=C1)CN2C=CC3=C2C=C(C=C3)C(=O)NO
Summary of the method: (§1)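 K562 cells at 2×10^6 cells/mL were treated with 10 μM compound for 30 min. Aliquots were heated for 3 min across 48°C-58°C, pooled, and extracted in PBS with 0.5% NP-40 at 4°C; soluble protein was the supernatant after 21,000xg for 90 min. Soluble protein was quantified by TMTpro 16plex LC-MS/MS with channel sums equalised, and reported as log2 fold change in thermal stability against DMSO controls, with values from duplicates.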

filanesib = compound: CON(C)C(=O)N1N=C(c2cc(F)ccc2F)S[C@@]1(CCCN)c1ccccc1 [filanesib]
Summary of the method: as §1

zotarolimus = compound: CO[C@H]1C[C@@H]2CC[C@@H](C)[C@@](O)(O2)C(=O)C(=O)N2CCCC[C@H]2C(=O)O[C@H]([C@H](C)C[C@@H]2CC[C@H](n3cnnn3)[C@H](OC)C2)CC(=O)[C@H](C)/C=C(\C)[C@@H](O)[C@@H](OC)C(=O)[C@H](C)C[C@H](C)/C=C/C=C/C=C/1C [zotarolimus]
Summary of the method: as §1

idasanutlin = compound: COc1cc(C(=O)O)ccc1NC(=O)[C@@H]1N[C@@H](CC(C)(C)C)[C@](C#N)(c2ccc(Cl)cc2F)[C@H]1c1cccc(Cl)c1F [idasanutlin]
Summary of the method: as §1

[2] = compound: COc1cc2nc(-c3cc(F)ccc3O)nc(N[C@@H]3CNC[C@H]3C(C)(C)O)c2cc1OC
Summary of the method: as §1

lapatinib = compound: CS(=O)(=O)CCNCc1ccc(-c2ccc3ncnc(Nc4ccc(OCc5cccc(F)c5)c(Cl)c4)c3c2)o1 [lapatinib]
Summary of the method: as §1

pictilisib = compound: CS(=O)(=O)N1CCN(Cc2cc3nc(-c4cccc5[nH]ncc45)nc(N4CCOCC4)c3s2)CC1 [pictilisib]
Summary of the method: as §1

[3] = compound: CS(=O)(=O)c1ccc(-c2cnc(N)c(C(=O)Nc3ccccc3)n2)cc1
Summary of the method: as §1

crizotinib = compound: C[C@@H](Oc1cc(-c2cnn(C3CCNCC3)c2)cnc1N)c1c(Cl)ccc(F)c1Cl [crizotinib]
Summary of the method: as §1

[4] = compound: C[C@@H]1COCCN1C2=NC(=NC(=C2)C3(CC3)S(=O)(=O)C)C4=C5C=CNC5=CC=C4
Summary of the method: as §1

[5] = compound: C[C@H](C1=CC=C(C=C1)C(=O)NC2=C3C=CNC3=NC=C2)N
Summary of the method: as §1

duvelisib = compound: C[C@H](Nc1ncnc2nc[nH]c12)c1cc2cccc(Cl)c2c(=O)n1-c1ccccc1 [duvelisib]
Summary of the method: as §1

gandotinib = compound: Cc1cc(Nc2cc(CN3CCOCC3)c3nc(C)c(Cc4ccc(Cl)cc4F)n3n2)n[nH]1 [gandotinib]
Summary of the method: as §1

tozasertib = compound: Cc1cc(Nc2cc(N3CCN(C)CC3)nc(Sc3ccc(NC(=O)C4CC4)cc3)n2)n[nH]1 [tozasertib]
Summary of the method: as §1

[6] = compound: Cc1cc(SCc2sc(-c3ccc(C(F)(F)F)cc3)nc2C)ccc1OCC(=O)O
Summary of the method: as §1

doramapimod = compound: Cc1ccc(-n2nc(C(C)(C)C)cc2NC(=O)Nc2ccc(OCCN3CCOCC3)c3ccccc23)cc1 [doramapimod]
Summary of the method: as §1

alisertib = compound: COc1cc(Nc2ncc3c(n2)-c2ccc(Cl)cc2C(c2c(F)cccc2OC)=NC3)ccc1C(=O)O [alisertib]
Summary of the method: as §1

gefitinib = compound: COc1cc2ncnc(Nc3ccc(F)c(Cl)c3)c2cc1OCCCN1CCOCC1 [gefitinib]
Summary of the method: as §1

[7] = compound: COc1cccc2cc(-c3nc([C@H]4CC[C@H](C(=O)O)CC4)n4ncnc(N)c34)[nH]c12
Summary of the method: as §1

ispinesib = compound: Cc1ccc(C(=O)N(CCCN)[C@@H](c2nc3cc(Cl)ccc3c(=O)n2Cc2ccccc2)C(C)C)cc1 [ispinesib]
Summary of the method: as §1

Measured: log2 fold change

HLA-E (UniProt P13747)
inactive: [1] -0.313 | filanesib -0.042 | zotarolimus 0.075 | idasanutlin -0.065 | [2] 0.008 | lapatinib 0.029 | pictilisib -0.065 | [3] -0.027 | crizotinib -0.039 | [4] 0.022 | [5] 0.012 | duvelisib 0.011 | gandotinib 0.115 | tozasertib 0.115 | [6] -0.003 | doramapimod 0.13

HIP1 (UniProt O00291)
inactive: [1] 0.022 | filanesib -0.026 | zotarolimus 0.017 | idasanutlin -0.003 | alisertib -0.269 | [2] 0.029 | gefitinib 0.016 | [7] 0.047 | lapatinib 0.059 | pictilisib 0 | [3] 0.054 | crizotinib -0.131 | [4] 0.035 | [5] -0.002 | gandotinib 0.029 | [6] 0.027 | doramapimod 0 | ispinesib -0.033

HUWE1, A0A087X1S3
inactive: [1] 0.022 | filanesib 0.096 | zotarolimus 0.031 | pictilisib -0.099 | [3] 0.028 | crizotinib -0.282 | [4] -0.092 | [5] -0.053 | duvelisib -0.078 | gandotinib 0 | tozasertib -0.03 | [6] 0.107 | doramapimod 0.02

HIST2H2BC (UniProt Q6DN03)
inactive: [1] -0.004 | filanesib 0.374 | idasanutlin 0.554 | alisertib 0.092 | [2] -0.2 | gefitinib 0.019 | [7] -0.383 | lapatinib 0.135 | pictilisib -0.092 | [3] 0.054 | crizotinib -0.109 | [4] -0.317 | duvelisib -0.151 | gandotinib 0.113 | tozasertib 0.03 | [6] -0.122 | doramapimod 0.135 | ispinesib -0.18

ICAM5 (UniProt Q9UMF0)
inactive: [1] -0.057 | filanesib 0.046 | zotarolimus -0.099 | idasanutlin -0.036 | alisertib 0.845 | gefitinib -0.014 | [7] 0 | [3] -0.052 | crizotinib 0.177 | [4] 0.078 | [5] -0.053 | duvelisib 0.233 | tozasertib -0.068 | [6] -0.133 | doramapimod -0.006 | ispinesib -0.134

HSPA8 (UniProt E9PN89)
inactive: [1] -0.312 | filanesib 0.126 | zotarolimus -0.036 | idasanutlin 0.113 | alisertib 0.042 | [2] 0.191 | gefitinib 0.035 | [7] 0.126 | lapatinib -0.426 | pictilisib 0.134 | [3] 0.12 | crizotinib 0.063 | [4] 0.024 | [5] 0.377 | gandotinib -0.068 | doramapimod 0

HMGB3 (UniProt O15347)
inactive: [1] 0.037 | filanesib -0.001 | zotarolimus 0.012 | idasanutlin 0.045 | alisertib -0.064 | [2] -0.031 | gefitinib -0.033 | [7] 0 | lapatinib 0.062 | pictilisib -0.044 | [3] 0.045 | crizotinib 0.026 | [4] -0.018 | [5] -0.071 | gandotinib 0.01 | [6] -0.001 | doramapimod 0.002 | ispinesib 0.1

HMGN2 (UniProt P05204)
inactive: [1] 0.01 | filanesib -0.043 | zotarolimus -0.048 | idasanutlin 0.041 | alisertib -0.028 | [2] 0.073 | gefitinib 0.046 | [7] 0.09 | lapatinib -0.051 | pictilisib -0.264 | [3] -0.093 | crizotinib 0.051 | [4] -0.201 | [5] -0.019 | gandotinib -0.212 | [6] -0.058 | doramapimod -0.1 | ispinesib -0.048

HNRNPF (UniProt P52597)
inactive: [1] 0.059 | filanesib -0.03 | zotarolimus 0.046 | idasanutlin 0.073 | alisertib 0.03 | [2] -0.036 | gefitinib -0.034 | [7] -0.026 | lapatinib 0.008 | pictilisib -0.088 | [3] -0.016 | crizotinib -0.152 | [4] 0.047 | [5] -0.004 | gandotinib -0.07 | [6] 0.119 | doramapimod -0.03 | ispinesib -0.092

HSP90AB4P (UniProt Q58FF6)
inactive: [1] -0.124 | filanesib -0.004 | zotarolimus 0.094 | idasanutlin -0.398 | alisertib 0.099 | gefitinib 0.051 | [7] -0.001 | [3] 0.05 | crizotinib -0.081 | [4] 0.035 | [5] -0.045 | duvelisib 0.074 | tozasertib -0.126 | [6] -0.114 | doramapimod 0.122

2 entries picked at random from the list so far, as already listed:
HMGB3 (UniProt O15347)
inactive: [1] 0.037 | filanesib -0.001 | zotarolimus 0.012 | idasanutlin 0.045 | alisertib -0.064 | [2] -0.031 | gefitinib -0.033 | [7] 0 | lapatinib 0.062 | pictilisib -0.044 | [3] 0.045 | crizotinib 0.026 | [4] -0.018 | [5] -0.071 | gandotinib 0.01 | [6] -0.001 | doramapimod 0.002 | ispinesib 0.1

HSPA8 (UniProt E9PN89)
inactive: [1] -0.312 | filanesib 0.126 | zotarolimus -0.036 | idasanutlin 0.113 | alisertib 0.042 | [2] 0.191 | gefitinib 0.035 | [7] 0.126 | lapatinib -0.426 | pictilisib 0.134 | [3] 0.12 | crizotinib 0.063 | [4] 0.024 | [5] 0.377 | gandotinib -0.068 | doramapimod 0

Further results

ICE1 (UniProt Q9Y2F5)
inactive: [1] -0.224 | filanesib 0.147 | alisertib -0.059 | gefitinib -0.015 | [7] 0.156 | [3] -0.016 | crizotinib 0.003 | [4] 0.093 | doramapimod 0.045
